Measurements reported in PubChem BioAssay AID1224830 (NIAID, 2016)

Screen: 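Genes whose knock-down alters the TNF-alpha reporter response to LPS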 (primary screen)
System: human THP-1 monocytic leukaemia cells, TNF dual-luciferase reporter clone, PMA-differentiated to macrophage-like cells
Knock-down reagent: siRNA pool against human genes, 50 nM
Timing: LPS for 4 h, given about 3 days after siRNA transfection
Challenge: bacterial LPS (TLR4 ligand), 10 ng/ml
Measured: 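Ratio of firefly to renilla light, scaled to the plate median and expressed as a robust z-score per replicate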
Reading the numbers: TNF reporter robust z-score: higher = stronger TNF reporter response to LPS
Call rule: 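Each well counts as active if its z-score is over 2.8 or under -1.5; controls are left without a call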
Here is a random part of about 18,000 reagents tested. In the full data, about 2,900 (16%) are marked active. 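Calls are made per well; low scores hint the gene aids the LPS response, high scores that it dampens it.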 Repeated entries: four replicate wells of each siRNA pool. Reagent sequences are not shown.

How did the screen score DPYSL5 (dihydropyrimidinase like 5)?
TNF reporter robust z-score: 1.18; Call: inactive

For DPYSL5 (dihydropyrimidinase like 5), how do the results read?
TNF reporter robust z-score: 3.29; Call: active

What is on record for DPYSL5 (dihydropyrimidinase like 5)?
TNF reporter robust z-score: 3.14; Call: active

Which result is listed for DPYSL5 (dihydropyrimidinase like 5)?
TNF reporter robust z-score: 1.17; Call: inactive

How did the screen score STK39 (serine/threonine kinase 39)?
TNF reporter robust z-score: -0.56; Call: inactive

How did the screen score STK39 (serine/threonine kinase 39)?
TNF reporter robust z-score: 0.19; Call: inactive

Which result is listed for STK39 (serine/threonine kinase 39)?
TNF reporter robust z-score: 0.49; Call: inactive

What did the screen give for STK39 (serine/threonine kinase 39)?
TNF reporter robust z-score: 0.98; Call: inactive

What is on record for SAPCD1 (suppressor APC domain containing 1)?
TNF reporter robust z-score: -0.4; Call: inactive

With SAPCD1 (suppressor APC domain containing 1), how do the results read?
TNF reporter robust z-score: 0.03; Call: inactive

Which result is listed for SAPCD1 (suppressor APC domain containing 1)?
TNF reporter robust z-score: -0.43; Call: inactive

What did the screen give for SAPCD1 (suppressor APC domain containing 1)?
TNF reporter robust z-score: -0.03; Call: inactive

Which result is listed for BASP1 (brain abundant membrane attached signal protein 1)?
TNF reporter robust z-score: 0.55; Call: inactive

How did the screen score BASP1 (brain abundant membrane attached signal protein 1)?
TNF reporter robust z-score: 0.76; Call: inactive

What is on record for BASP1 (brain abundant membrane attached signal protein 1)?
TNF reporter robust z-score: -0.23; Call: inactive

For BASP1 (brain abundant membrane attached signal protein 1), what does the deposit list?
TNF reporter robust z-score: 0.35; Call: inactive

For ARHGEF6 (Rac/Cdc42 guanine nucleotide exchange factor 6), what was measured?
TNF reporter robust z-score: -1.4; Call: inactive

For ARHGEF6 (Rac/Cdc42 guanine nucleotide exchange factor 6), what was measured?
TNF reporter robust z-score: -1.48; Call: inactive

What did the screen give for ARHGEF6 (Rac/Cdc42 guanine nucleotide exchange factor 6)?
TNF reporter robust z-score: -1.17; Call: inactive

For ARHGEF6 (Rac/Cdc42 guanine nucleotide exchange factor 6), what was measured?
TNF reporter robust z-score: -1.39; Call: inactive

Which result is listed for HYAL1 (hyaluronidase 1)?
TNF reporter robust z-score: -0.91; Call: inactive

For HYAL1 (hyaluronidase 1), how do the results read?
TNF reporter robust z-score: -0.86; Call: inactive

For HYAL1 (hyaluronidase 1), what does the deposit list?
TNF reporter robust z-score: -1; Call: inactive

For HYAL1 (hyaluronidase 1), what does the deposit list?
TNF reporter robust z-score: -0.09; Call: inactive

3 entries already listed, sorted by “TNF reporter robust z-score”, low to high.
SAPCD1 (suppressor APC domain containing 1) → TNF reporter robust z-score = -0.4; Call = inactive
SAPCD1 (suppressor APC domain containing 1) → TNF reporter robust z-score = 0.03; Call = inactive
STK39 (serine/threonine kinase 39) → TNF reporter robust z-score = 0.98; Call = inactive

The list goes on:
Which result is listed for REXO2 (RNA exonuclease 2)?
TNF reporter robust z-score: 0.84; Call: inactive

What is on record for REXO2 (RNA exonuclease 2)?
TNF reporter robust z-score: 1.05; Call: inactive

With REXO2 (RNA exonuclease 2), what does the deposit list?
TNF reporter robust z-score: 1.06; Call: inactive

Which result is listed for REXO2 (RNA exonuclease 2)?
TNF reporter robust z-score: 1.19; Call: inactive

How did the screen score IL3RA (interleukin 3 receptor subunit alpha)?
TNF reporter robust z-score: -1.79; Call: active

What did the screen give for IL3RA (interleukin 3 receptor subunit alpha)?
TNF reporter robust z-score: -1.67; Call: active

What is on record for IL3RA (interleukin 3 receptor subunit alpha)?
TNF reporter robust z-score: -2; Call: active

How did the screen score IL3RA (interleukin 3 receptor subunit alpha)?
TNF reporter robust z-score: -1.9; Call: active

What did the screen give for SWSAP1 (SWIM-type zinc finger 7 associated protein 1)?
TNF reporter robust z-score: -0.45; Call: inactive

Which result is listed for SWSAP1 (SWIM-type zinc finger 7 associated protein 1)?
TNF reporter robust z-score: 0.03; Call: inactive

With SWSAP1 (SWIM-type zinc finger 7 associated protein 1), what was measured?
TNF reporter robust z-score: 0.72; Call: inactive

What did the screen give for SWSAP1 (SWIM-type zinc finger 7 associated protein 1)?
TNF reporter robust z-score: -0.79; Call: inactive

With NPC2 (NPC intracellular cholesterol transporter 2), what was measured?
TNF reporter robust z-score: -0.43; Call: inactive

What is on record for NPC2 (NPC intracellular cholesterol transporter 2)?
TNF reporter robust z-score: 0.71; Call: inactive

Which result is listed for NPC2 (NPC intracellular cholesterol transporter 2)?
TNF reporter robust z-score: 0.07; Call: inactive

How did the screen score NPC2 (NPC intracellular cholesterol transporter 2)?
TNF reporter robust z-score: -0.14; Call: inactive

Which result is listed for GPR183 (G protein-coupled receptor 183)?
TNF reporter robust z-score: 0.64; Call: inactive

What did the screen give for GPR183 (G protein-coupled receptor 183)?
TNF reporter robust z-score: 1.85; Call: inactive

With GPR183 (G protein-coupled receptor 183), what was measured?
TNF reporter robust z-score: 0.55; Call: inactive

What is on record for GPR183 (G protein-coupled receptor 183)?
TNF reporter robust z-score: 4.4; Call: active

For PAK6 (p21 (RAC1) activated kinase 6), what does the deposit list?
TNF reporter robust z-score: -1.42; Call: inactive

For PAK6 (p21 (RAC1) activated kinase 6), what does the deposit list?
TNF reporter robust z-score: -1.51; Call: active

With PAK6 (p21 (RAC1) activated kinase 6), how do the results read?
TNF reporter robust z-score: 0.55; Call: inactive

For PAK6 (p21 (RAC1) activated kinase 6), what does the deposit list?
TNF reporter robust z-score: 0.84; Call: inactive

With TMEM106B (transmembrane protein 106B), how do the results read?
TNF reporter robust z-score: -0.54; Call: inactive

What is on record for TMEM106B (transmembrane protein 106B)?
TNF reporter robust z-score: 0.16; Call: inactive

With TMEM106B (transmembrane protein 106B), how do the results read?
TNF reporter robust z-score: -0.13; Call: inactive

How did the screen score YTHDC1 (YTH N6-methyladenosine RNA binding protein C1)?
TNF reporter robust z-score: 2.36; Call: inactive

What is on record for YTHDC1 (YTH N6-methyladenosine RNA binding protein C1)?
TNF reporter robust z-score: 1.12; Call: inactive

What did the screen give for YTHDC1 (YTH N6-methyladenosine RNA binding protein C1)?
TNF reporter robust z-score: 2.32; Call: inactive

How did the screen score YTHDC1 (YTH N6-methyladenosine RNA binding protein C1)?
TNF reporter robust z-score: 2.24; Call: inactive

For GALNT4 (polypeptide N-acetylgalactosaminyltransferase 4), what was measured?
TNF reporter robust z-score: 0.65; Call: inactive

With GALNT4 (polypeptide N-acetylgalactosaminyltransferase 4), what was measured?
TNF reporter robust z-score: 1.61; Call: inactive

For GALNT4 (polypeptide N-acetylgalactosaminyltransferase 4), what was measured?
TNF reporter robust z-score: 1.63; Call: inactive

For GALNT4 (polypeptide N-acetylgalactosaminyltransferase 4), what was measured?
TNF reporter robust z-score: 2.02; Call: inactive

With MAMLD1 (mastermind like domain containing 1), what was measured?
TNF reporter robust z-score: 0.33; Call: inactive

For MAMLD1 (mastermind like domain containing 1), what does the deposit list?
TNF reporter robust z-score: -0.66; Call: inactive

With MAMLD1 (mastermind like domain containing 1), what was measured?
TNF reporter robust z-score: 0.56; Call: inactive

How did the screen score MAMLD1 (mastermind like domain containing 1)?
TNF reporter robust z-score: 0.03; Call: inactive
